{"source": "PubChem BioAssay AID1259254 (NCATS, 2017)", "screen": "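Gene knock-downs that lead to re-replication, shown by excess G2 DNA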 (primary screen)", "cells": "human HCT116 colorectal cancer cells", "reagents": "single siRNA against human genes", "timing": "3 days", "read-out": "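Imaged Hoechst DNA stain sorts each cell into a cycle phase by DNA amount; per plate, G2 fraction set to 0% for non-targeting and 100% for GMNN siRNA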", "scale": "G2 robust z-score: higher = more G2 cells, more excess DNA replication", "active means": "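An siRNA counts as active if its G2 robust z-score lies at least 5 MADs above the screen median; here such calls match roughly 38% of GMNN control or more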", "note": "This is a random part of about 59,000 deposited reagents. About 1,550 of them (2.6%) count as active. 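G2 share is only a proxy for re-replication; each gene was hit by three separate siRNAs, and active genes were retested.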 The numbers tell different reagents against one gene apart. Further read-outs or replicates are left out here. Reagent sequences are not shown. Not given: the amount of reagent."}
{"gene": "LOC643659 (retired record)", "reagent": 1, "G2 robust z-score": 2.17, "Outcome": "inactive"}
{"gene": "LOC643659 (retired record)", "reagent": 2, "G2 robust z-score": 0.204, "Outcome": "inactive"}
{"gene": "LOC643659 (retired record)", "reagent": 3, "G2 robust z-score": 1.68, "Outcome": "inactive"}
{"gene": "SP2", "reagent": 1, "G2 robust z-score": -1.44, "Outcome": "inactive"}
{"gene": "SP2", "reagent": 2, "G2 robust z-score": 2.96, "Outcome": "inactive"}
{"gene": "SP2", "reagent": 3, "G2 robust z-score": 1.32, "Outcome": "inactive"}
{"gene": "DCP2", "reagent": 1, "G2 robust z-score": 1.32, "Outcome": "inactive"}
{"gene": "DCP2", "reagent": 2, "G2 robust z-score": 1.78, "Outcome": "inactive"}
{"gene": "DCP2", "reagent": 3, "G2 robust z-score": -0.142, "Outcome": "inactive"}
{"gene": "HJV", "reagent": 1, "G2 robust z-score": -0.338, "Outcome": "inactive"}
{"gene": "HJV", "reagent": 2, "G2 robust z-score": 1.92, "Outcome": "inactive"}
{"gene": "HJV", "reagent": 3, "G2 robust z-score": 1.58, "Outcome": "inactive"}
{"gene": "SP4", "reagent": 1, "G2 robust z-score": -0.483, "Outcome": "inactive"}
{"gene": "SP4", "reagent": 2, "G2 robust z-score": 1.14, "Outcome": "inactive"}
{"gene": "SP4", "reagent": 3, "G2 robust z-score": 1.75, "Outcome": "inactive"}
{"gene": "ANKRD36B", "reagent": 1, "G2 robust z-score": 3.45, "Outcome": "inactive"}
{"gene": "ANKRD36B", "reagent": 2, "G2 robust z-score": 2.68, "Outcome": "inactive"}
{"gene": "ANKRD36B", "reagent": 3, "G2 robust z-score": -1.07, "Outcome": "inactive"}
{"gene": "ZFYVE19", "reagent": 1, "G2 robust z-score": -0.591, "Outcome": "inactive"}
{"gene": "ZFYVE19", "reagent": 2, "G2 robust z-score": 0.12, "Outcome": "inactive"}
{"gene": "ZFYVE19", "reagent": 3, "G2 robust z-score": -0.126, "Outcome": "inactive"}
{"gene": "THOC3", "reagent": 1, "G2 robust z-score": -1.06, "Outcome": "inactive"}
{"gene": "THOC3", "reagent": 2, "G2 robust z-score": -0.891, "Outcome": "inactive"}
{"gene": "THOC3", "reagent": 3, "G2 robust z-score": 2.5, "Outcome": "inactive"}
